Measurements reported in PubChem BioAssay AID1259254 (NCATS, 2017).
Shown is an unselected part of about 59,000 deposited reagents. Over the whole deposit, about 1,550 (2.6%) were called active. 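G2 share is only a proxy for re-replication; each gene was hit by three separate siRNAs, and active genes were retested.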 Raw values are not corrected between plates. Reagents against one gene are numbered here. Not given: the amount of reagent.

- Screen: 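Gene knock-downs that lead to re-replication, shown by excess G2 DNA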 (primary screen)
- System: human HCT116 colorectal cancer cells
- Reagents: single siRNA against human genes
- Time to read-out: 3 days
- Detection: 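Imaged Hoechst DNA stain sorts each cell into a cycle phase by DNA amount; per plate, G2 fraction set to 0% for non-targeting and 100% for GMNN siRNA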
- Scale: G2 robust z-score and G2 cells, % of GMNN control: higher = more G2 cells, more excess DNA replication; raw share of cells in G2: higher = larger share of cells with G2 DNA content
- Rule for the call: 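Active siRNAs have a G2 robust z of 5 or more median absolute deviations over the median, which in these data means about 38% or higher of GMNN control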

target	reagent	G2 robust z-score	G2 cells, % of GMNN control	raw share of cells in G2 (%)	activity call
PPP1R12B (GeneID 4660)	1	0.555	6.87	7.03	inactive
PPP1R12B (GeneID 4660)	2	-0.0609	2.54	5.07	inactive
PPP1R12B (GeneID 4660)	3	1.26	11.8	7.06	inactive
AP5S1 (GeneID 55317)	1	0.556	6.88	7.17	inactive
AP5S1 (GeneID 55317)	2	-0.0275	2.77	5.29	inactive
AP5S1 (GeneID 55317)	3	4.79	36.7	14.8	inactive
FAM9A (GeneID 171482)	1	1.06	10.4	7.33	inactive
FAM9A (GeneID 171482)	2	0.776	8.43	5.79	inactive
FAM9A (GeneID 171482)	3	0.604	7.22	5.04	inactive
FXYD5 (GeneID 53827)	1	-0.246	1.24	4.7	inactive
FXYD5 (GeneID 53827)	2	-0.676	-1.79	3.11	inactive
FXYD5 (GeneID 53827)	3	0.565	6.95	9.1	inactive
LNPEP (GeneID 4012)	1	-1	-4.07	4.14	inactive
LNPEP (GeneID 4012)	2	0.706	7.94	7.72	inactive
LNPEP (GeneID 4012)	3	-0.197	1.58	4.5	inactive
KCNT1 (GeneID 57582)	1	-0.807	-2.71	3.32	inactive
KCNT1 (GeneID 57582)	2	0.632	7.42	7.99	inactive
KCNT1 (GeneID 57582)	3	3.18	25.4	13.4	inactive
OMG (GeneID 4974)	1	1.46	13.3	10.2	inactive
OMG (GeneID 4974)	2	0.446	6.1	7.23	inactive
OMG (GeneID 4974)	3	-1.01	-4.13	1.79	inactive
DEFB125 (GeneID 245938)	1	-0.608	-1.31	3.1	inactive
DEFB125 (GeneID 245938)	2	0.758	8.3	5.97	inactive
DEFB125 (GeneID 245938)	3	-0.281	0.992	3.51	inactive
SLCO3A1 (GeneID 28232)	1	-0.0314	2.75	5.1	inactive
SLCO3A1 (GeneID 28232)	2	-0.677	-1.79	3.4	inactive
SLCO3A1 (GeneID 28232)	3	-1.59	-8.22	2.43	inactive
VPS13C (GeneID 54832)	1	-0.18	1.7	4.21	inactive
VPS13C (GeneID 54832)	2	-0.277	1.02	4.7	inactive
VPS13C (GeneID 54832)	3	-1.06	-4.48	1.71	inactive
DNAJC1 (GeneID 64215)	1	0.713	7.99	5.61	inactive
DNAJC1 (GeneID 64215)	2	-1.05	-4.45	3.9	inactive
DNAJC1 (GeneID 64215)	3	4.81	36.8	15.2	inactive
AAR2 (GeneID 25980)	1	1.22	11.5	8.75	inactive
AAR2 (GeneID 25980)	2	-0.0372	2.71	5.11	inactive
AAR2 (GeneID 25980)	3	1.29	12	7.5	inactive
PRR14L (GeneID 253143)	1	1.03	10.2	7.29	inactive
PRR14L (GeneID 253143)	2	-0.394	0.193	3.2	inactive
PRR14L (GeneID 253143)	3	6.4	48	18.5	active
B4GALNT3 (GeneID 283358)	1	-0.741	-2.25	4.93	inactive
B4GALNT3 (GeneID 283358)	2	0.36	5.5	7.11	inactive
B4GALNT3 (GeneID 283358)	3	3.92	30.5	15.4	inactive
QPRT (GeneID 23475)	1	-1.52	-7.73	3.27	inactive
QPRT (GeneID 23475)	2	-1.03	-4.28	2.72	inactive
QPRT (GeneID 23475)	3	7.18	53.5	22.2	active
CIB1 (GeneID 10519)	1	-0.334	0.617	5.78	inactive
CIB1 (GeneID 10519)	2	0.104	3.7	6.54	inactive
CIB1 (GeneID 10519)	3	-0.483	-0.431	3.54	inactive
AARD (GeneID 441376)	1	-0.936	-3.62	2.22	inactive
AARD (GeneID 441376)	2	1.06	10.4	7.37	inactive
AARD (GeneID 441376)	3	3.89	30.3	13.4	inactive
LHFPL4 (GeneID 375323)	1	-0.36	0.433	4.82	inactive
LHFPL4 (GeneID 375323)	2	2.66	21.7	11.2	inactive
LHFPL4 (GeneID 375323)	3	0.649	7.53	6.68	inactive
ADSS1 (GeneID 122622)	1	1.31	12.2	11.3	inactive
ADSS1 (GeneID 122622)	2	1.3	12.1	10.2	inactive
ADSS1 (GeneID 122622)	3	-0.016	2.85	5.56	inactive
RASA4CP (GeneID 401331)	1	0.857	9	7.09	inactive
RASA4CP (GeneID 401331)	2	-1.49	-7.53	1.67	inactive
RASA4CP (GeneID 401331)	3	-0.209	1.5	4.36	inactive
LSM14B (GeneID 149986)	1	-1.06	-4.52	2.31	inactive
LSM14B (GeneID 149986)	2	-0.401	0.146	2.96	inactive
LSM14B (GeneID 149986)	3	-0.3	0.855	3.37	inactive
INPP5A (GeneID 3632)	1	-0.0133	2.87	5.73	inactive
INPP5A (GeneID 3632)	2	-0.344	0.546	4.47	inactive
INPP5A (GeneID 3632)	3	-1.03	-4.25	2.22	inactive
PTHLH (GeneID 5744)	1	4.66	35.7	17.3	inactive
PTHLH (GeneID 5744)	2	1.13	10.9	7.77	inactive
PTHLH (GeneID 5744)	3	1.48	13.4	9.78	inactive

Records above marked active, once more:
target	reagent	G2 robust z-score	G2 cells, % of GMNN control	raw share of cells in G2 (%)	activity call
PRR14L (GeneID 253143)	3	6.4	48	18.5	active
QPRT (GeneID 23475)	3	7.18	53.5	22.2	active
